# Library screening results

Protein sequences, listed by entry. Tags and fused reporters are not part of them.
UniProt E9BF75, entry or part of it: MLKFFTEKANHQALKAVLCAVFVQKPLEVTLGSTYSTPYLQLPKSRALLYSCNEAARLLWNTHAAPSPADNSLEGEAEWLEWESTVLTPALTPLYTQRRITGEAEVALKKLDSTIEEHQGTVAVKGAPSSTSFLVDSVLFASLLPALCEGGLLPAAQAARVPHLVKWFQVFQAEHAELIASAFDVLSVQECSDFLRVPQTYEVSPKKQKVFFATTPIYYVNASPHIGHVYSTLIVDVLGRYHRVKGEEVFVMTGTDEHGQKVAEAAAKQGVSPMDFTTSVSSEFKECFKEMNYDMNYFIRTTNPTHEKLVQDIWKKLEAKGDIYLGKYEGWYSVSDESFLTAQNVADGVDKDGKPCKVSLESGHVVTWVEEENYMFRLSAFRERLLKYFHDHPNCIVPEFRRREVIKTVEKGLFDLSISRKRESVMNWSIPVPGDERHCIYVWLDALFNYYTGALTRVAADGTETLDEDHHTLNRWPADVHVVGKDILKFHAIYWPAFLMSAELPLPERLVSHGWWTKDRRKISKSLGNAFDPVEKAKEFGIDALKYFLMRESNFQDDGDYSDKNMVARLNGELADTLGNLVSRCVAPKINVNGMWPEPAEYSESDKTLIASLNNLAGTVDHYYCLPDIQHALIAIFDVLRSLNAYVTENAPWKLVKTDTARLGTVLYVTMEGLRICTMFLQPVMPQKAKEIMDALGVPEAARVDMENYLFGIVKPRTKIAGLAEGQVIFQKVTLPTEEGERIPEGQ

Data taken from ChEMBL document CHEMBL3988442, “University of Dundee, Small-Polar-MMV Screening Library” (2021).

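Methionyl-tRNA synthetase (putative), Leishmania donovani (UniProt E9BF75). Primary screen of methionyl-tRNA synthetase; the read-out is not stated. The test concentration is not given. Values are per cent inhibition. Size under these conditions: about 68,000 compounds, about 24 of them at 50% or above in at least one test.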

Results are percentages, as filed. The record does not define 0% and 100%; most values in the screen are far below 50% and negative numbers occur (in some assays of this library far below -100). This is an unselected part of the compounds tested.

With Cn1cc(CNC2CCCOc3c2ccc2ccccc32)cn1 (configuration not stated) the screen gave 18.08%. For COc1ccc(C(N)=O)cc1NCc1ncc(C(C)(C)C)o1 the result was 8.982%. CCSc1ccccc1C(=O)NCCn1nc(C(F)(F)F)n(C)c1=O gave 8.042%. Result for CS(=O)(=O)NC[C@H]1OC[C@H]2CN(CCc3ccccc3)CC[C@H]21 was -2.186%. Cc1nnc(NC(=O)N2CCN(Cc3ccc(F)cc3)C(=O)C2)s1 gave 8.242%.

With CC(C(=O)NCCCn1ccnc1)n1cc(Br)cn1 (configuration not stated) the screen gave 7.087%. CCOC(C)c1nc(Cn2cccn2)cs1 (configuration not stated) read 2.419%. CCOC(=O)[C@@H]1[C@@H](c2ccccc2)CN2CCNC[C@H]12 gave 11.78%. COc1cc(CC2CC(c3ccc4c(c3)OCO4)=NO2)cc2c1OCO2 (configuration not stated) gave 3.904%. Result for CN(C)CC(C)(C)Cn1cnc(-c2ccccc2)c1-c1cccc(O)c1 was 17.89%.

CNC(=O)c1cnc(/C=C/c2cc(OC)c3c(c2)OCCO3)s1 read 10.44%. Result for CO[C@H]1CCN(S(=O)(=O)c2cn(C)cn2)[C@H]1Cc1ccccc1 was 15.31%. COCCCNC(=O)CN1CCSC(c2ccccc2)C1 (configuration not stated) gave 18.13%. CN(C)CCO[C@H]1CN(C(=O)c2cccs2)[C@@H]2COC[C@H]12 gave 7.19%. CNc1cc(CCNS(=O)(=O)c2ccccc2)nc(-c2ccccn2)n1 read 17.19%.

CNC(=O)C1=NOC2(CCN(Cc3nccs3)C2)C1 (configuration not stated) gave 3.922%. With O=C1CC2(CCN(Cc3ccncc3)C2)CN1c1cccc(F)c1 (configuration not stated) the screen gave 8.591%. Cc1ncsc1CCC(=O)NCc1cc2n(n1)CCN(C(=O)N(C)C)C2 gave 14.16%. Result for Cc1cc2c(cc1NC(=O)NC(C)(C)C)OCO2 was 15.59%. For CCCS(=O)(=O)c1ccc(N2CCN(c3ccccn3)CC2)nn1 the result was 1.439%.

With Cc1ccc(NC(=O)N2CCN(Cc3noc(C4CC4)n3)CC2)cc1 the screen gave 5.556%. Result for CC(=O)c1cn(CCC(=O)N[C@H](C(=O)O)C(C)C)c2ccccc12 was 11.2%. Cc1cnc(CN(C)C2CCN(Cc3sc(C)nc3C)C2)o1 (configuration not stated) gave 3.736%. Result for CCNc1ncc(C(=O)N(C)CCc2nc3cc(Cl)ccc3[nH]2)cn1 was 13.9%. With NCc1cnn(-c2ccccc2C(=O)NCCc2ccncc2)c1 the screen gave 13.59%.

Result for N[C@@H]1c2ccccc2C2(CCN(C(=O)c3cncc(Cl)c3)CC2)[C@H]1O was 4.178%. CCc1cccc(N2CCC(NC(=O)c3ccoc3C)CC2)c1 gave 11.75%. O=C(NCCc1nnc2n1CCC2)NC1(c2cccc(F)c2)CC1 read 9.859%. For COCCN(Cc1ccoc1)C(=O)c1cccnc1SC the result was 18.63%. FC(F)(F)C1CCc2nnc(CNCc3ccsc3)n2C1 (configuration not stated) read 10.04%.

Result for Cc1nnc(NCc2ccc(Br)cc2)o1 was 14.66%. With CNC(=O)c1cn[nH]c1C1(C)CCCN(Cc2ccccc2OC)C1 (configuration not stated) the screen gave 11.58%. Result for Cc1cnn(CC2CCCN2Cc2nc(N)c3ccccc3n2)c1 (configuration not stated) was 3.614%. Result for Cc1nccn1C1CCCN(C(=O)c2ccc(N(C)C)nc2)C1 (configuration not stated) was 12.6%. CC(C)(C)c1ncc(C(=O)NC(C(N)=O)c2ccccc2)s1 (configuration not stated) read 1.955%.

With Cc1noc([C@@H](C)NCc2ccc(F)cc2)c1C(=O)O the screen gave 9.023%. Cc1cccc(C)c1Nc1noc2c1CN(C(=O)c1ccnn1C)CC2 gave 8.14%. O=C(CCc1ccc(Br)cc1)NCCc1nnc[nH]1 gave 3.495%. OC1CCN(CCCNc2ncccn2)CC1 gave 5%. Result for CC(C)NC(=O)N1CCN(C(=O)C(C)C)CC2(CC(=O)N(C)C2)C1 (configuration not stated) was 4.323%.

With CC(=O)c1ccc(NC(=O)NC(C)c2ccc3c(c2)CC(=O)N3)cc1 (configuration not stated) the screen gave 10.6%. With Cc1ccc2c(n1)N(CCN(C)C)CCN(C(=O)c1ccco1)C2 the screen gave 20.88%. For O=C(c1ccc[nH]1)N1CC2(CCN(c3ncccn3)C2)C1 the result was 5.226%. CC(C)N(C)CC(=O)NCC(O)c1cc2ccccc2s1 (configuration not stated) gave 16.54%. For O=C(NCCC1=CCCCC1)Nc1cc(C(F)(F)F)c[nH]c1=O the result was 15.56%.

For CN1CCOC(CN(C(=O)CCCn2cccn2)c2nccs2)C1 (configuration not stated) the result was 11.67%. With O=C(Cc1n[nH]c(-c2cncc(Br)c2)n1)NCc1cccnc1 the screen gave 10.41%. CN(CCc1nc2ccccc2c(=O)[nH]1)CCC(F)(F)F gave 13.77%.

Some entries from above, unchanged:

Compound	Inhibition
NCc1cnn(-c2ccccc2C(=O)NCCc2ccncc2)c1	13.59%
CN1CCOC(CN(C(=O)CCCn2cccn2)c2nccs2)C1 (configuration not stated)	11.67%
CNC(=O)c1cnc(/C=C/c2cc(OC)c3c(c2)OCCO3)s1	10.44%
Cc1nccn1C1CCCN(C(=O)c2ccc(N(C)C)nc2)C1 (configuration not stated)	12.6%
OC1CCN(CCCNc2ncccn2)CC1	5%
COCCCNC(=O)CN1CCSC(c2ccccc2)C1 (configuration not stated)	18.13%